Laboratory results: PubChem BioAssay AID272 (DTP/NCI, 2004)
The list does not hold the whole screen: it is rich in T/C values a quarter to a half above the control, in often repeated tests (any T/C) and in doses without a T/C. Other doses and runs of a compound stand elsewhere. T/C: endpoint of the treated group in % of that of the vehicle group. Schedules are NCI's codes, taken here to give the interval after Q, in days (D) or hours (H), and the number of doses after X. Some T/C values carry the count of animals alive at the toxicity check (mostly the fifth day); where none is given, no animal had died by that day. Some entries were tested several times; the values are given in rising order. Marks such as (2×) give the number of equal values in this list. Some entries give survivors of the animals treated and no T/C: the source files T/C as zero there, which appears to mark a toxic dose or a test without result, not a measured value. Some doses without a T/C left all or most animals alive at the check, yet need not have been tolerated: survival well below the control is almost never listed, so the zero probably covers shortened survival too. Counts of survivors are from the toxicity check (mostly the fifth day) where no day follows; animals may have died later. For survival time, this PubChem deposit counts one and a half times the control or more as active, and values a quarter to a half above the control carry no call in these data; other NCI protocols may use other cut-offs.

System: Lewis lung carcinoma i.m., BDF1 mice, T/C %
Assay: NCI In Vivo Anticancer Drug Screen. Data for tumor model Lewis Lung Carcinoma (intramuscular) in B6D2F1 (BDF1) mice
Details: vehicle: saline
Experimental: The antitumor activity of compounds was measured in mice bearing transplantable tumors. Survival or tumor size were measured and the results are expressed as the measurement made in the treated group (T) divided by the measurement made in the vehicle treated control group (C). The tumor model used in this assay is Lewis Lung Carcinoma (intramuscular) in B6D2F1 (BDF1) mice

Compound: O=P1(N(CCCl)CCCl)NCCCO1 (configuration not stated)
- T/C (T/C endpoint: mean tumor weight (est.), dose: 65.0 mg/kg/injection, schedule: Q01DX001 (ip), evaluated on day 12, higher T/C = larger tumour): 7, 9, 19, 24 (2×), 26, 27, 29 [7 of 8 alive], 32, 36 [6 of 8 alive], 37, 38 [7 of 8 alive], 39, 40 [6 of 8 alive], 42, 47, 48 (2×), 49, 54, 56 % of control [7 of 8 alive]
- T/C (T/C endpoint: mean tumor weight (est.), dose: 108.0 mg/kg/injection, schedule: Q01DX001 (ip), evaluated on day 12, higher T/C = larger tumour): 4, 4 [7 of 8 alive], 7, 10 (4×), 10 [7 of 8 alive], 13, 14 (2×), 15, 15 [7 of 8 alive], 20 [7 of 8 alive], 29, 35 % of control
- survivor count (T/C endpoint: mean tumor weight (est.), dose: 108.0 mg/kg/injection, schedule: Q01DX001 (ip), higher T/C = larger tumour): 3 of 8 and 4 of 8
- T/C (T/C endpoint: mean tumor weight (est.), dose: 180.0 mg/kg/injection, schedule: Q01DX001 (ip), evaluated on day 12, higher T/C = larger tumour): 17 % of control [6 of 8 alive]
- survivor count (T/C endpoint: mean tumor weight (est.), dose: 180.0 mg/kg/injection, schedule: Q01DX001 (ip), higher T/C = larger tumour): 1 of 8, 3 of 8, 5 of 8
- T/C (T/C endpoint: mean tumor weight, dose: 65.0 mg/kg/injection, schedule: Q01DX001 (ip), evaluated on day 12, higher T/C = larger tumour): 21, 35, 50, 55, 66 % of control
- T/C (T/C endpoint: mean tumor weight, dose: 108.0 mg/kg/injection, schedule: Q01DX001 (ip), evaluated on day 12, higher T/C = larger tumour): 8, 13 [7 of 8 alive], 30, 42 % of control
- survivor count (T/C endpoint: mean tumor weight, dose: 180.0 mg/kg/injection, schedule: Q01DX001 (ip), higher T/C = larger tumour): 3 of 8
- T/C (T/C endpoint: median survival time, dose: 23.0 mg/kg/injection, schedule: Q08DX003 (sc), higher T/C = longer survival): 144 % of control
- T/C (T/C endpoint: median survival time, dose: 25.0 mg/kg/injection, schedule: Q03DX010 (ip), evaluated on day 9, higher T/C = longer survival): 121 % of control
- T/C (T/C endpoint: median survival time, dose: 25.0 mg/kg/injection, schedule: Q03DX010 (ip), evaluated on day 13, higher T/C = longer survival): 107 % of control
- T/C (T/C endpoint: median survival time, dose: 25.0 mg/kg/injection, schedule: Q03DX010 (ip), evaluated on day 60, higher T/C = longer survival): 108 % of control
- T/C (T/C endpoint: median survival time, dose: 25.0 mg/kg/injection, schedule: Q03DX010 (ip), evaluated on day 93, higher T/C = longer survival): 121 % of control
- T/C (T/C endpoint: median survival time, dose: 31.0 mg/kg/injection, schedule: Q01DX007 (sc), evaluated on day 14, higher T/C = longer survival): 135 % of control
- T/C (T/C endpoint: median survival time, dose: 31.0 mg/kg/injection, schedule: Q01DX007 (sc), evaluated on day 62, higher T/C = longer survival): 136 % of control
- T/C (T/C endpoint: median survival time, dose: 50.0 mg/kg/injection, schedule: Q01DX001 (ip), evaluated on day 9, higher T/C = longer survival): 130 % of control
- T/C (T/C endpoint: median survival time, dose: 50.0 mg/kg/injection, schedule: Q01DX001 (ip), evaluated on day 13, higher T/C = longer survival): 136 % of control
- T/C (T/C endpoint: median survival time, dose: 50.0 mg/kg/injection, schedule: Q01DX001 (ip), evaluated on day 60, higher T/C = longer survival): 136 % of control
- T/C (T/C endpoint: median survival time, dose: 50.0 mg/kg/injection, schedule: Q01DX001 (ip), evaluated on day 93, higher T/C = longer survival): 130 % of control
- T/C (T/C endpoint: median survival time, dose: 50.0 mg/kg/injection, schedule: Q03DX010 (ip), evaluated on day 9, higher T/C = longer survival): 85 % of control
- T/C (T/C endpoint: median survival time, dose: 50.0 mg/kg/injection, schedule: Q03DX010 (ip), evaluated on day 13, higher T/C = longer survival): 79 % of control
- survivor count (T/C endpoint: median survival time, dose: 50.0 mg/kg/injection, schedule: Q03DX010 (ip), higher T/C = longer survival): 6 of 8 and 8 of 8
- T/C (T/C endpoint: median survival time, dose: 50.0 mg/kg/injection, schedule: Q14DX002 (ip), evaluated on day 13, higher T/C = longer survival): 145 % of control
- T/C (T/C endpoint: median survival time, dose: 50.0 mg/kg/injection, schedule: Q14DX002 (ip), evaluated on day 60, higher T/C = longer survival): 145 % of control
- T/C (T/C endpoint: median survival time, dose: 65.0 mg/kg/injection, schedule: Q01DX001 (ip), evaluated on day 10, higher T/C = longer survival): 145 % of control
- T/C (T/C endpoint: median survival time, dose: 65.0 mg/kg/injection, schedule: Q01DX001 (ip), evaluated on day 12, higher T/C = longer survival): 136 % of control
- T/C (T/C endpoint: median survival time, dose: 65.0 mg/kg/injection, schedule: Q01DX001 (ip), evaluated on day 36, higher T/C = longer survival): 93 % of control
- T/C (T/C endpoint: median survival time, dose: 65.0 mg/kg/injection, schedule: Q01DX001 (ip), evaluated on day 38, higher T/C = longer survival): 131 % of control
- T/C (T/C endpoint: median survival time, dose: 65.0 mg/kg/injection, schedule: Q01DX001 (ip), evaluated on day 40, higher T/C = longer survival): 86, 121, 131 % of control
- T/C (T/C endpoint: median survival time, dose: 65.0 mg/kg/injection, schedule: Q01DX001 (ip), evaluated on day 41, higher T/C = longer survival): 114 and 155 % of control
- T/C (T/C endpoint: median survival time, dose: 65.0 mg/kg/injection, schedule: Q01DX001 (ip), evaluated on day 42, higher T/C = longer survival): 87 [6 of 8 alive], 96 [7 of 8 alive], 98, 108, 109 [7 of 8 alive], 144 % of control
- T/C (T/C endpoint: median survival time, dose: 65.0 mg/kg/injection, schedule: Q01DX001 (ip), evaluated on day 43, higher T/C = longer survival): 91 % of control
- T/C (T/C endpoint: median survival time, dose: 65.0 mg/kg/injection, schedule: Q01DX001 (ip), evaluated on day 47, higher T/C = longer survival): 101 [7 of 8 alive], 105, 117, 121, 123, 125, 127 (2×), 152 % of control
- T/C (T/C endpoint: median survival time, dose: 65.0 mg/kg/injection, schedule: Q01DX001 (ip), evaluated on day 50, higher T/C = longer survival): 121, 122, 124, 136 (2×), 139 % of control
- T/C (T/C endpoint: median survival time, dose: 65.0 mg/kg/injection, schedule: Q01DX001 (ip), evaluated on day 62, higher T/C = longer survival): 145 % of control
- T/C (T/C endpoint: median survival time, dose: 65.0 mg/kg/injection, schedule: Q01DX001 (ip), evaluated on day 66, higher T/C = longer survival): 178 % of control
- T/C (T/C endpoint: median survival time, dose: 65.0 mg/kg/injection, schedule: Q01DX001 (sc), higher T/C = longer survival): 127 % of control
- T/C (T/C endpoint: median survival time, dose: 65.0 mg/kg/injection, schedule: Q01DX011 (ip), evaluated on day 42, higher T/C = longer survival): 116, 120, 124 % of control
- T/C (T/C endpoint: median survival time, dose: 65.0 mg/kg/injection, schedule: Q01DX011 (ip), evaluated on day 47, higher T/C = longer survival): 112 % of control
- T/C (T/C endpoint: median survival time, dose: 65.0 mg/kg/injection, schedule: Q08DX003 (ip), higher T/C = longer survival): 127 % of control [7 of 8 alive]
- survivor count (T/C endpoint: median survival time, dose: 86.0 mg/kg/injection, schedule: Q01DX007 (sc), higher T/C = longer survival): 5 of 8
- T/C (T/C endpoint: median survival time, dose: 100.0 mg/kg/injection, schedule: Q01DX001 (ip), evaluated on day 9, higher T/C = longer survival): 403 % of control
